Data as given in patent US20150133390A1, “Identification of New Therapeutic Uses for Known Therapeutic Agents” (The Board of Trustees of the Leland Stanford Junior …, priority 2012, published 2015).

What was measured:
[1] = system: FVB donor hearts implanted into C57BL/6 WT mice (cardiac allograft); assay: Graft survival in murine heterotopic cardiac transplant model of acute rejection; format: in vivo, mouse; settings: Cox-proportional hazard analysis, treated compared to untreated AR
Description: (§1) FVB donor hearts were implanted into the abdomen of C57BL/6 WT mice representing a complete MHC mismatch, as described previously. Animals were divided into three treatment groups (Atorvastatin, Dasatinib, and Cyclosporine) and one non-treated control group, each consisting of 6 animals. Animal activity, body weight and graft viability (abdominal palpation) were assessed daily.
(§2) Atorvastatin (75 mg/kg body weight/day) and Dasatinib (25 mg/kg body weight/day) were administered daily by oral gavages, Cyclosporine (20 mg/kg body weight/day) was administered daily intraperitoneally. Before oral gavages of Atorvastatin and Dasatinib, aliquots were mixed thoroughly. Unused formulations were discarded. Treatment started the day prior to transplantation and lasted until the day before sacrifice at post operation day 7 by exsanguination. Grafts were harvested and divided into three equal parts for downstream analyses.
For survival study, another group of 6 mice for each treatment (total 18 mice for Cyclosporine, Atorvastatin, and Dasatinib) and 6 mice for untreated AR group were used using the same protocol described above. Graft viability (abdominal palpation) were assessed daily for these animals until post operation day 30.

CXCL10 = settings: patients with Crohn's disease, cited from earlier work
[2] = system: graft infiltrating cells in cardiac allograft; assay: Graft histology / immunohistochemistry of infiltrating cells at POD 7; format: in vivo, mouse; settings: POD 7, compared to treatment with cyclosporine (p>0.05)
Description: as §1, §2
One third of the explanted allograft heart (POD7) was immediately fixed in […] buffered formalin, embedded in paraffin and subsequently stained with hematoxylin and eosin for histological assessment of tissue according to standard protocols. Pictures of the graft tissue were taken at 10× magnification using a Nikon E600 light microscope (Nikon Instruments Inc., Melville, N.Y.) and Spot V4.6 imaging software (Spot Imaging, Sterling Heights, Mich.).

Compound: CC(C)c1c(C(=O)Nc2ccccc2)c(-c2ccccc2)c(-c2ccc(F)cc2)n1CC[C@@H](O)C[C@@H](O)CC(=O)O [atorvastatin]
- hazard ratio for graft survival [1]: 36.33
- other chemokines and cytokines in plasma (CXCL10; nine chemokines and four endothelial cytokines investigated): did not affect
- CXCL10 plasma levels (CXCL10; Grip and Janciauskiene, 2009): reduced
- number of infiltrating cells (immunohistochemistry) relative to cyclosporine [2]: equivalent
